The values that follow come from PubChem BioAssay AID1273 (Columbia University Molecular Screening Center, 2008).

The structures appear in SMILES notation. Some of the results follow. The main result of the screen is listed elsewhere. These columns were measured beside it and carry no call. The list favours compounds with an active or inconclusive main result.

This experiment in a line: inhibitors of insulin promoter-driven GFP, primary screen, imaging, TRM-6 cells (human fetal islet line), eGFP reporter, cell count (AID 1273;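 also: cells exposed to compound for 48 h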). Conditions: measured here: cell count, toxicity, at 2 µM, reporter expression induced with tamoxifen.
Turning to `CCCn1nnc(NC(=O)c2cc(Br)ccc2OC)n1`, the normalized cell count came to 33.6%. To `O=C(NCc1ccco1)c1cc([N+](=O)[O-])cc([N+](=O)[O-])c1` belongs 181%. As for `O=C(CCCOc1ccccc1)Nc1cccc([N+](=O)[O-])c1`, the normalized cell count was 108%.

For the compound `CCOC(=O)CSc1nnc(CNC(=O)c2ccc(S(=O)(=O)N3CCCC3)cc2)n1C`, the normalized cell count is 114%. With `O=C(c1cccc(F)c1)n1nnc2ccccc21` the figure was 42.6%; with `O=C(Nc1ccccc1)c1ccc(S(=O)(=O)N(CCO)CCO)cc1`, 68.8%.

For the compound `Cn1cc([N+](=O)[O-])c(C(=O)N/N=C/c2ccc3c(c2)OCO3)n1`, the normalized cell count stood at 49.9%. Turning to `Cc1ccc(NC(=O)C2CC(=O)n3c(nc4ccccc43)N2)cc1Cl` (stereo not given), the normalized cell count amounted to 96.8%. To `COc1cccc(-n2c(SCC(N)=O)nnc2-c2ccncc2)c1` belongs 103%; to `CC(C)(CSc1ccccn1)NS(=O)(=O)c1ccc(Cl)cc1`, 168%; to `CC(=O)Nc1cc2c(cc1C(=O)c1ccc(C)cc1)OCCO2`, 81.8%. The compound `O=C(O)c1cnc(-c2ccccc2)nc1Sc1ccccc1` gave a normalized cell count of 136%. With `COc1cccc2c(=O)cc(C)n(CC(=O)Nc3cccc(C)c3)c12` the figure was 149%. Turning to `COc1cc2c(cc1OC)/C(=C/c1ccc(Br)cc1)C(=O)OC2`, the normalized cell count is 68.3%. For the compound `CCN(CC)c1nc2n(c(=O)n1)CCO2`, the normalized cell count came to 138%. To `CCOc1ccc(-c2cc(CCCC(=O)NCCc3ccccc3)no2)cc1` belongs 104%; to `Cc1ccc(OCCN(C)C)c([N+](=O)[O-])c1`, 81.2%. Turning to `Cc1nc(=O)c(-c2ccccc2)c(C)n1-c1ccc(O)cc1`, the normalized cell count was 29.3%.

With `COc1ccc(-n2ncc3c(NCc4ccc5c(c4)OCO5)ncnc32)cc1`, the normalized cell count was found to be 90.4%. In turn, `Cc1ccc(-n2nnnc2SCC(N)=O)c(C)c1` returned a normalized cell count of 94.1%. `Cc1cnc(NC(=O)Cc2cccs2)s1` had a normalized cell count of 98.4%. With `COc1ccc(CN2C(=O)CCC2(C)C(=O)NC2CCCC2)c(OC)c1` (stereo not given) the figure was 79.8%. To `Cc1cccc2c1NC(=O)/C2=C\C(=O)c1cccs1` belongs 125%.

The compound `O=C(c1ccco1)N1CCN(S(=O)(=O)c2cccs2)CC1` showed a normalized cell count of 135%.

For `Cc1ccc(-c2nn(-c3ccccc3)cc2C2SCC(=O)N2Cc2ccccc2)o1` (stereo not given), the normalized cell count was found to be 116%. With `COc1ccc(/C=N/NC(=O)CSc2ccccc2)cc1OC` the figure was 29.9%; with `CCCOc1ccc(C(=O)C(CN2CCCC2)c2ccccc2)cc1` (stereo not given), 68.6%.

`Cn1c(SCC(=O)O)nnc1C1CCCCC1` had a normalized cell count of 107%. With `CC1=C(C#N)C(/C=N/OCc2ccc(Cl)cc2)CC(=O)N1` (stereo not given) the figure was 85.6%; with `COC(=O)c1ccc(-n2c(C)nc(=O)c(-c3ccccc3)c2C)cc1`, 55.4%; with `c1ccc2[nH]c(-c3ccnc4ccccc34)nc2c1`, 73.7%. With `CC1=C(C(=O)Nc2ccccc2)C(c2ccncc2)C(C#N)=C(SCC(=O)NC(C)C)N1` (stereo not given) the figure was 145%; with `CCCC(=O)n1nc(-c2cccnc2)nc1N`, 61.2%; with `Cc1nc2c(Cl)cc(Cl)cc2[nH]1`, 170%. With `CCOC(=O)/C(=C/c1ccc(N2CCC(c3ccccc3)=N2)cc1)C(C)=O` the figure was 74.3%; with `O=C(NNC(=O)c1cccc2ccccc12)c1ccc(-c2ccccc2)cc1`, 152%; with `O=[N+]([O-])c1ccccc1/C=C\C=N\N1CCN(c2ccccc2)CC1`, 69.6%. In turn, `COc1ccc(Nc2nc(N)nc(CSc3nncn3C)n2)cc1` came in with a normalized cell count of 94.3%.

Turning to `COC(=O)c1ccc(-c2nc3ccccc3[nH]2)cc1`, the normalized cell count was 125%. To `COC(=O)c1[nH]c2ccccc2c1NC(=O)CN1CCN(C(=O)c2ccco2)CC1` belongs 79.8%. With `Cc1ccc(CNS(=O)(=O)NCc2cccs2)cc1` the figure was 97.1%.

`O=S(=O)(c1ccc(Nc2ccc3c(c2)OCO3)nc1)N1CCOCC1` showed a normalized cell count of 176%. In turn, `CCc1c(O)nc(SCC(=O)Nc2ccccc2C)[nH]c1=O` returned a normalized cell count of 129%. `Cc1cc(C)c2c(N)c(C(=O)c3ccc(Cl)c(Cl)c3)sc2n1` showed a normalized cell count of 103%. `COc1ccc(CC(=O)NCc2n[nH]c(=S)n2-c2cccc(C)c2)cc1` had a normalized cell count of 60.9%. On to `CC(C)(C)c1ccc(-c2nnc(SCC(=O)NC3CCS(=O)(=O)C3)n2N)cc1` (stereo not given), for which the normalized cell count was 82.4%. To `O=C(Nc1nc2ccccc2s1)C1CC(=O)N(c2ccc(Br)cc2)C1` (stereo not given) belongs 118%; to `CC(=O)N1N=C(c2cccs2)CC1c1ccc(C)o1` (stereo not given), 88.8%. With `C=CCNc1ncnc2c1[nH]c1ccc(Cl)cc12` the figure was 149%; with `COc1ccc(F)cc1S(=O)(=O)N1CCCN(S(=O)(=O)c2cc(F)ccc2OC)CC1`, 117%; with `C[C@H]1O[C@@H](O[C@H]2[C@@H](O)C[C@H](O[C@H]3[C@@H](O)C[C@H](O[C@H]4CC[C@@]5(C)[C@H](CC[C@@H]6[C@@H]5C[C@@H](O)[C@]5(C)[C@@H](C7=CC(=O)OC7)CC[C@]65O)C4)O[C@@H]3C)O[C@@H]2C)C[C@H](O)[C@@H]1O`, 0%. With `O=C(NCc1nc(-c2ccccc2)no1)c1ccc(Br)o1` the figure was 154%. In the case of `CCOC(=O)Cn1c(=O)c2c(nc(N3CCOCC3)n2C)n(C)c1=O`, the normalized cell count was found to be 90.2%.

The compound `NS(=O)(=O)c1ccc(NC(=O)C2Cc3ccccc3C(=O)O2)cc1` (stereo not given) returned a normalized cell count of 52.9%.

In the case of `Cc1ccc2c(c1)C(=NC1CCCCC1)c1cc3ccccc3nc1-2`, the normalized cell count stood at 137%. To `CC(NC(=O)C12CC3(C)CC(C)(CC(C)(C3)C1)C2)C(=O)O` (stereo not given) belongs 121%; to `CCc1cc(=O)oc2c(CN3CCCC3)c(O)c(Cl)cc12`, 97.8%. `Cc1ccc(Cn2nnnc2CN2CCC(O)(c3cccnc3)CC2)cc1` displayed a normalized cell count of 86.6%. Take `Cc1cc(C)c2c(N)c(C(=O)c3ccc(Cl)cc3)sc2n1`: the normalized cell count was 105%.

`Cc1c(C(=O)c2ccc(Cl)c([N+](=O)[O-])c2)c2ccccn2c1CCC#N` registered a normalized cell count of 130%. To `CC(C)c1cc(C(=O)Nc2ccc3c(c2)OCO3)no1` belongs 126%; to `CCc1ccc2[nH]c3nc(C)cc(C)c3c(=O)c2c1`, 127%; to `COc1cccc(N=c2oc3ccccc3cc2-c2nc3ccccc3[nH]2)c1`, 150%.

In turn, `CCN1C/C(=C\c2cccc([N+](=O)[O-])c2)C(=O)/C(=C/c2cccc([N+](=O)[O-])c2)C1` yielded a normalized cell count of 0.56%. `Cn1c(=O)c2c(nc(NCC3CCCO3)n2Cc2ccccc2)n(C)c1=O` (stereo not given): the normalized cell count stood at 10.8%. As for `CCOC(=O)C1(C)C=C(Nc2ccc(C)cc2)C(=O)N1c1ccc(C)cc1` (stereo not given), the normalized cell count came to 144%. `Cc1ccc(-c2cn3cccc(C)c3n2)cc1`: the normalized cell count turned out to be 126%. Turning to `CCOc1ccccc1NC(=O)COn1nnc2ccccc21`, the normalized cell count amounted to 111%. Regarding `CCCNc1ncccc1C(N)=O`, the normalized cell count was found to be 67.4%. Turning to `O=C1C2ON(c3ccccc3)C(c3ccncc3)C2C(=O)N1c1ccccc1` (stereo not given), the normalized cell count is 134%.
